Measured values published in publication PMC12146697.
Results are given in words; binding and its absence hold for the method and conditions named. Binding seen in cells or lysates may run through a third protein. Here binding means that the protein was enriched with, or labelled near, the bait; the list need not be complete.

Chains of the proteins cited; added tags and fusions are not shown. Lines headed by an entry give the natural chain unless they say otherwise; changes in a name come on top.
UniProt P20340: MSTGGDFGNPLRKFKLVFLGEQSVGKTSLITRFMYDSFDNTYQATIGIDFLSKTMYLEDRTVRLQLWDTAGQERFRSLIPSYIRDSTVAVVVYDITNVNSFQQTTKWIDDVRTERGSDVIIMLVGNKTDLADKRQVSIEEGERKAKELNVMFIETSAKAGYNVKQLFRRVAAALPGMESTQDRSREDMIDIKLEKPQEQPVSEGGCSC
UniProt O08788: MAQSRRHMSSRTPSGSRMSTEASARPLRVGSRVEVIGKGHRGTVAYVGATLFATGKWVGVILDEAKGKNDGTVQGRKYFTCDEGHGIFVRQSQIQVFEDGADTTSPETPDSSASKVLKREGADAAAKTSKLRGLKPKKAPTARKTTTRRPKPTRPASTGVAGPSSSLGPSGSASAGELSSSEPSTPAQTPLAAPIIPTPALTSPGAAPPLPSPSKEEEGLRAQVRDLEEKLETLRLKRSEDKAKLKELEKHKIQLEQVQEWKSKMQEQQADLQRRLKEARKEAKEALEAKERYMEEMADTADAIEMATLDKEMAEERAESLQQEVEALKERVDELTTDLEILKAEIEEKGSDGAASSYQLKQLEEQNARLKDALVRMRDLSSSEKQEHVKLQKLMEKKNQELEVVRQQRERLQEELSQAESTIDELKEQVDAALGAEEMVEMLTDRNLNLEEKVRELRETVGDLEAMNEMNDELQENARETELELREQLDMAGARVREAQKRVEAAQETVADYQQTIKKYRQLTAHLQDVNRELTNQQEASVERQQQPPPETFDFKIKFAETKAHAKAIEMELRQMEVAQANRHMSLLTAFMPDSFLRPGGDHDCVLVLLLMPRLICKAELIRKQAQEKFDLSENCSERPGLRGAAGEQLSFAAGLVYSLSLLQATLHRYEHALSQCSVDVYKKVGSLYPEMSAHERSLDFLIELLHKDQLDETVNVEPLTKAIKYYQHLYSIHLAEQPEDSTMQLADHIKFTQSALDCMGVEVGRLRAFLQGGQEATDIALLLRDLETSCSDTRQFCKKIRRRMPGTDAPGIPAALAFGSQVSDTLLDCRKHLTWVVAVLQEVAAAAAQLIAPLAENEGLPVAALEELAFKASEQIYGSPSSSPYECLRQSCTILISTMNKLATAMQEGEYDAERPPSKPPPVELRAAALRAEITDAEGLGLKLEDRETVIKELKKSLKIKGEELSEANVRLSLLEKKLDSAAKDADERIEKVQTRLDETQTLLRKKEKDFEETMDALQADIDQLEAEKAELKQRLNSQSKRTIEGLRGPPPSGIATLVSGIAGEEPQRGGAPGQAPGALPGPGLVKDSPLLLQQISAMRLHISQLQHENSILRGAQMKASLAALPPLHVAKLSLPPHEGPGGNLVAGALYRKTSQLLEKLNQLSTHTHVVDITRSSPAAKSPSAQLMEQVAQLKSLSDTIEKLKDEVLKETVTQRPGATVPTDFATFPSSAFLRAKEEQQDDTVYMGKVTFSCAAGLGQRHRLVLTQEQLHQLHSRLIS
UniProt Q99KJ8: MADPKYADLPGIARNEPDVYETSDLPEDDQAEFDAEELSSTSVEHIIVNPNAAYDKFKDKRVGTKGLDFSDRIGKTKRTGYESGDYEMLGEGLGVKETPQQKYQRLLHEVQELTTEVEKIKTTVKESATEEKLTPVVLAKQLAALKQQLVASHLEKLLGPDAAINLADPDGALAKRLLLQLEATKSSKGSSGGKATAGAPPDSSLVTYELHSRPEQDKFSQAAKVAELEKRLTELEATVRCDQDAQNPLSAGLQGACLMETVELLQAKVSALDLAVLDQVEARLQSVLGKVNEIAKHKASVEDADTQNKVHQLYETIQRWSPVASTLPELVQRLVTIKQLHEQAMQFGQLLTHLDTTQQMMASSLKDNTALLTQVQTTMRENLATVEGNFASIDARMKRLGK
UniProt Q8CBY8: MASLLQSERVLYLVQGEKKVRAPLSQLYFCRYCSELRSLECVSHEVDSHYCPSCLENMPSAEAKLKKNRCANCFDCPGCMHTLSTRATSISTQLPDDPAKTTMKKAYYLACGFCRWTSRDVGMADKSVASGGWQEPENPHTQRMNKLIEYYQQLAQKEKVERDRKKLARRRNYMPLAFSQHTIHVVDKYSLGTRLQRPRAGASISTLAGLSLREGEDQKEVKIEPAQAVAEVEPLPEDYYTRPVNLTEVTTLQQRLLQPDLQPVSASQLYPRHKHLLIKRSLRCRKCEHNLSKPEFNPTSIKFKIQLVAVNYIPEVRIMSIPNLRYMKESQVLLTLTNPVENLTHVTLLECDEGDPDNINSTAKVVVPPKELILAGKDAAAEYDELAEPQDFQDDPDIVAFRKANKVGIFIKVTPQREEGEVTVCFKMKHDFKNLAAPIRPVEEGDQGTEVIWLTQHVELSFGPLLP
UniProt O88485: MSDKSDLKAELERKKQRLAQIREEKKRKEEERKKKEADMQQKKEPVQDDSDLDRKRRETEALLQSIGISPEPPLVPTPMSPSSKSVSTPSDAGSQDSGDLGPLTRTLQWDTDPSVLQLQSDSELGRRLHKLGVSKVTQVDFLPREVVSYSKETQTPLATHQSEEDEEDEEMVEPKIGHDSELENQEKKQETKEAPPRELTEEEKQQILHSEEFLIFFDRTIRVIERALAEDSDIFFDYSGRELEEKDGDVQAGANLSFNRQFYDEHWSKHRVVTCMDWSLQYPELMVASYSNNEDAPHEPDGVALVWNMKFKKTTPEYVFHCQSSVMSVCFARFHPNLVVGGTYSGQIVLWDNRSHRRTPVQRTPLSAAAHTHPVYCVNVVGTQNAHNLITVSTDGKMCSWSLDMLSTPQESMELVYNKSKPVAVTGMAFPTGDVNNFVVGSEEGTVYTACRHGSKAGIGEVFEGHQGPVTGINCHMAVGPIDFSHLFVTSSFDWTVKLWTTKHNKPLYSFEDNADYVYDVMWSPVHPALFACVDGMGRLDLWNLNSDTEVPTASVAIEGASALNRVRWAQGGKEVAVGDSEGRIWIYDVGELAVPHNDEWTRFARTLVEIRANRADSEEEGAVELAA
UniProt Q9Z0Y1: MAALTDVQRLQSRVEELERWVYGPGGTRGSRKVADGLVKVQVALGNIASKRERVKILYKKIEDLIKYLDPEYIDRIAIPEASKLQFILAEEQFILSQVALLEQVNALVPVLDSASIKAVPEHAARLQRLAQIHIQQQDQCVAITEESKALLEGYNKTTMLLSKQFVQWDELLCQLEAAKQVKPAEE
UniProt Q9QZB7: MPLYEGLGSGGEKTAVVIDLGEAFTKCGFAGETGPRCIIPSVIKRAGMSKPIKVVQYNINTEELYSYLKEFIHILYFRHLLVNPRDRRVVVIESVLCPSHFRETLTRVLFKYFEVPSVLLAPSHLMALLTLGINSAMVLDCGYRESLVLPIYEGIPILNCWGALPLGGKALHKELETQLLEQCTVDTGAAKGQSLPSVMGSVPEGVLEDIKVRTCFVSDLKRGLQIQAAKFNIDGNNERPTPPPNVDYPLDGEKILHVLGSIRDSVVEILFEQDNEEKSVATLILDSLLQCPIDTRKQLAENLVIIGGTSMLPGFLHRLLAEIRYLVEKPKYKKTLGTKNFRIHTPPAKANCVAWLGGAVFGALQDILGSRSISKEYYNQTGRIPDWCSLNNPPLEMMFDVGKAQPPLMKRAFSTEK
UniProt Q8C9S4: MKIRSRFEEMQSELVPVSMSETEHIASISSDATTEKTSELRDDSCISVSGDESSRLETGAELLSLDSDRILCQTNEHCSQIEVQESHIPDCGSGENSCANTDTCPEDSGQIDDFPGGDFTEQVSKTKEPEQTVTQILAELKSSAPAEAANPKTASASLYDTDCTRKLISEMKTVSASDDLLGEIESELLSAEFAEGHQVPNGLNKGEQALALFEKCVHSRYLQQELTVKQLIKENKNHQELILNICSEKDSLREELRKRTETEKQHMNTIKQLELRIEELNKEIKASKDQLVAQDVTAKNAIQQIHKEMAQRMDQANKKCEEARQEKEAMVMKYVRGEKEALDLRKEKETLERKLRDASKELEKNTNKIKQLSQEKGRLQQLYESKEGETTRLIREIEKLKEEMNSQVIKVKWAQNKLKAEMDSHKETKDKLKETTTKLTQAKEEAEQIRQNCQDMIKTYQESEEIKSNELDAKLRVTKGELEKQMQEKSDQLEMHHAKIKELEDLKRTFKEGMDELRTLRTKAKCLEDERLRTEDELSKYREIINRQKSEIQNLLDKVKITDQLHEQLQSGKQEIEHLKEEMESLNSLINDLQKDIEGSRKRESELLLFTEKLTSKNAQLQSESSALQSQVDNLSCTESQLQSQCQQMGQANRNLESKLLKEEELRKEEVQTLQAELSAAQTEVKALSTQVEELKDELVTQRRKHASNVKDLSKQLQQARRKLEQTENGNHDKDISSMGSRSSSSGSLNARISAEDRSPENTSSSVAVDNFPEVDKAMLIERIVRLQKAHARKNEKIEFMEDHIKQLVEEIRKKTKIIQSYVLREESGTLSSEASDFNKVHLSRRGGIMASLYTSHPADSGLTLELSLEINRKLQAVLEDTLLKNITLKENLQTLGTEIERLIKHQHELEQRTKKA

Biological target: GST-fused GTP-bound Rab6a Q72A (UniProt P20340)
Assay: affinity purification with mass spectrometry; GST-fused GTP-bound Rab6a Q72A (or GDP-bound T27N) immobilised, mouse brain lysate; silver-stained SDS-PAGE, bands by mass spectrometry; Oxr1 confirmed by immunoblot with anti-Oxr1; only the target purified

| Molecule | binding |
| --- | --- |
| Dctn1 (from UniProt O08788 1-1281) | binds |
| Dctn2 (from UniProt Q99KJ8 1-402) | binds |
| CapZb (from UniProt P47757 1-277) | binds |
| Dctn4 (from UniProt Q8CBY8 1-467) | binds |
| Dync1i1 (from UniProt O88485 1-628) | binds |
| Oxr1 (endogenous, mouse brain) (protein, UniProt Q4KMM3 1-866) MSVSNLSWLKKKSQSVDITAPGFNPLGGAGKQAPQASKPPAPKTPIIEEEQNNSANTQKHPSRKSELKRFYTIDTGQKKTLDKKDGRRMSFQKPKGTIEYTVESRDSLNSIALKFDTTPNELVQLNKLFSRAVVTGQVLYVPDPEYVSSVESSPSLSPVSPLSPTSSEAEFDKTTTPDVAHPKEAPPASTVSGIRPARVVSSTSEEEEAFTEKFLKINCKYITIGKGTVSGVLLVTPNNIMFDPHKTDPLVQENGCEEYGIMCPMEEVMSAAMYKEILDSKIKESLPIELDQLSGRGSCHSKKATGVSAEDADPRARDQGNDSASTAPRSTEESLSEDAFTESELSPIREELLSSEPRQEKSSDASSESVQTVSQMEVQSLTATSEAANVPDRTSSNPGALSHETGLSGLETATKGGDKATESLQEVSGPKEQSTEVKGQDNQDSSHQESSLQQEAGEDSVSSGETVELKEKPAVLKDQQGQELKRDSETEVEELRKLWKTHSMQQAKQQRDTIQQVSQRESKHSSAAADAHGEGSSLLKEKRRHRLHKFLCLRVGKPMRKTFVSQASATMQQYAQRDKKHEYWFAVPQERTDHLYAFFIQWSPEIYAEDSGEYTREPGFIVVKKMDESEANEAPAGEAAAREWEVVSVAEYHRRIDALNTEELRTLCRRLQITTREDINSKQVAPAKADLEPESFRPNLSDPSELLLPDQIEKLTKHLPPRTIGYPWTLVYGTGKHGTSLKTLYRTMTGLDTPVLMVIKDSDGQVFGALASEPFKVSDGFYGTGETFVFTFCPEFEVFKWTGDNMFFIKGDMDSLAFGGGGGEFALWLDGDLYHGRSHSCKTFGNHTLSKKEDFFIQDIEIWAFE | binds |
| Elks2 (protein, UniProt Q6PH08 1-957) MYGSARTISNLEGSPSRSPRLPRSPRLGHRRTSSGGGGGTGKTLSMENIQSLNAAYATSGPMYLSDHEGVASTTYPKGTMTLGRATNRAVYGGRVTAMGSSPNIASAGLSHTDVLSYTDQHGGLSGSSHHHHHQVPSMLRQVRDSTMLDLQAQLKELQRENDLLRKELDIKDSKLGSSMNSIKTFWSPELKKERVLRKEEAARMSVLKEQMRVSHEENQHLQLTIQALQDELRTQRDLNHLLQQESGNRGAEHFTIELTEENFRRLQAEHDRQAKELFLLRKTLEEMELRIETQKQTLNARDESIKKLLEMLQSKGLPSKSLEDDNERTRRMAEAESQVSHLEVILDQKEKENIHLREELHRRSQLQPEPAKTKALQTVIEMKDTKIASLERNIRDLEDEVQMLKANGVLNTEDREEEIKQIEVYKSHSKFMKTKIDQLKQELSKKESELLALQTKLETLSNQNSDCKQHIEVLKESLTAKEQRAAILQTEVDALRLRLEEKESFLNKKTKQLQDLTEEKGTLAGEIRDMKDMLEVKERKINVLQKKIENLQEQLRDKDKQLTNLKDRVKSLQTDSSNTDTALATLEEALSEKERIIERLKEQRERDDRERLEEIESFRKENKDLKEKVNALQAELTEKESSLIDLKEHASSLASAGLKRDSKLKSLEIAIEQKKEECNKLEAQLKKAHNIEDDSRMNPEFADRLKQLDKEASYYRDECGKAQAEVDRLLEILKEVENEKNDKDKKIAELESLTLRHMKDQNKKVANLKYNQQLEKKKNAQLLEEVRRREDSMVDNSQHLQIEELMNALEKTRQELDATKARLASTQQSLAEKEAHLANLRIERRKQLEEILEMKQEALLAAISEKDANIALLELSASKKKKTQEEVMALKREKDRLVHQLKQQTQNRMKLMADNYDEDHHHYHHHHHHHHHRSPGRSQHSNHRPSPDQDDEEGIWA | binds |

The remaining lines, values ahead:

| binding | Molecule |
| --- | --- |
| binds | Dctn3 (from UniProt Q9Z0Y1 1-186) |
| binds | Actr10 (from UniProt Q9QZB7 1-417) |
| binds | Ccdc186 (from UniProt Q8C9S4 1-917) |
| binds | Elks1 (protein, UniProt Q99MI1 1-1120) MYGSARSVGKVEPSSQSPGRSPRLPRSPRLGHRRTNSTGGSSGNSVGGGSGKTLSMENIQSLNAAYATSGPMYLSDHENVGAETPKSTMTLGRSGGRLPYGVRMTAMGSSPNIASSGVASDTIAFGEHHLPPVSMASTVPHSLRQARDNTIMDLQTQLKEVLRENDLLRKDVEVKESKLSSSMNSIKTFWSPELKKERALRKDEASKITIWKEQYRVVQEENQHMQMTIQALQDELRIQRDLNQLFQQDSSSRTGEPCVAELTEENFQRLHAEHERQAKELFLLRKTLEEMELRIETQKQTLNARDESIKKLLEMLQSKGLSAKATEEDHERTRRLAEAEMHVHHLESLLEQKEKENNMLREEMHRRFENAPDSAKTKALQTVIEMKDSKISSMERGLRDLEEEIQMLKSNGALSSEEREEEMKQMEVYRSHSKFMKNKVEQLKEELSSKDAQGEELKKRAAGLQSEIGQVKQELSRKDTELLALQTKLETLTNQFSDSKQHIEVLKESLTAKEQRAAILQTEVDALRLRLEEKETMLNKKTKQIQDMAEEKGTQAGEIHDLKDMLDVKERKVNVLQKKIENLQEQLRDKEKQMSSLKERVKSLQADTTNTDTALTTLEEALADKERTIERLKEQRDRDEREKQEEIDTYKKDLKDLREKVSLLQGDLSEKEASLLDIKEHASSLASSGLKKDSRLKTLEIALEQKKEECLKMESQLKKAHEATLEARASPEMSDRIQQLEREISRYKDESSKAQTEVDRLLEILKEVENEKNDKDKKIAELESLTSRQVKDQNKKVANLKHKEQVEKKKSAQMLEEARRREDSLSDSSQQLQDSLRKKDDRIEELEEALRESVQITAEREMVLAQEESARTNAEKQVEELLMAMEKVKQELESMKAKLSSTQQSLAEKETHLTNLRAERRKHLEEVLEMKQEALLAAISEKDANIALLELSSSKKKTQEEVAALKREKDRLVQQLKQQTQNRMKLMADNYEDDHFRSSRSNQTNHKPSPDQIIQPLLELDQNRSKLKLYIGHLTALCHDRDPLILRGLTPPASYNADGEQAAWENELQQMTQEQLQNELEKVEGDNAELQEFANTILQQIADHCPDILEQVVNALEESS |
